Data published in PMC6377630, “NapM enhances the survival of Mycobacterium tuberculosis under stress and in macrophages” (Communications Biology, 2019).
These are yes or no findings as the source states them, for the method shown. Binding can be weak; no strength is given. Where a sequence is shown, tags or fusion partners need not be part of it.

Chains of the proteins cited; added tags and fusions are not shown. Lines headed by an entry give the natural chain unless they say otherwise; changes in a name come on top.
UniProt P71704: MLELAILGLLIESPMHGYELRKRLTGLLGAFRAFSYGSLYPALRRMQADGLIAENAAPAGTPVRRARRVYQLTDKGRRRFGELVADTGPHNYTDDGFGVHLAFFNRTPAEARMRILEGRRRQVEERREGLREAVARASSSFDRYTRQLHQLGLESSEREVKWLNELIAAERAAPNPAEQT

Molecular target: T1, DnaA, bacterial two-hybrid fusion (M. tuberculosis) (UniProt P9WNW3)
T1 sequence: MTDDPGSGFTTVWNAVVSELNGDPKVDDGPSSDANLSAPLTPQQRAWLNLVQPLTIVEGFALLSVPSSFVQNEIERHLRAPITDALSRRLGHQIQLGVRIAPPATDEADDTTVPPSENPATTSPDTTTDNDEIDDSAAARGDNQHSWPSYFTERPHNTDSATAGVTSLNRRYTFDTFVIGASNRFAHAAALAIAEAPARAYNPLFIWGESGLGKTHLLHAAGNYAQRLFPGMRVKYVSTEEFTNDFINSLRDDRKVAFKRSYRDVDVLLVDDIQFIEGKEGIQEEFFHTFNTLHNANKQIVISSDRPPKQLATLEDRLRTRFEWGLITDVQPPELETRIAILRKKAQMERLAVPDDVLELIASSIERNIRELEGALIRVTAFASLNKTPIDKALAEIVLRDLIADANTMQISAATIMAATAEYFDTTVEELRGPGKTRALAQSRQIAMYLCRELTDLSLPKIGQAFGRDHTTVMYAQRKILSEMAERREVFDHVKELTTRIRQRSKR
Test: two-hybrid

NapM, bacterial two-hybrid fusion (from UniProt P71704)
binding: binds

NapM C-terminal domain (CTD), bacterial two-hybrid fusion (M. tuberculosis) (domain or fragment)
binding: binds
